Assay results taken from US20240423474A1, “SYSTEM AND METHOD FOR INTRAOPERATIVE LIFETIME IMAGING” (The General Hospital Corporation, priority 2021, published 2024).
Some results come without the dose or concentration used. Where no unit stands, none is given here, and values compare only within one read-out.

What was measured:
Assay type in all cases: in vivo, human
OSCC tumors [1] = assay: Confocal FLIM of OSCC tissue sections from patients injected with panitumumab-IRDye800CW
OSCC tumors [2] = assay: Widefield TD and spectral imaging of OSCC tissue block, ROC tumor/normal classification; conditions: FIG. 14K
sarcoma tumors = assay: ROC tumor versus normal classification in specimens of sarcoma patients; conditions: 10 sarcoma patients, FIG. 17A
head and neck cancers = assay: ROC tumor versus normal classification in specimens of head and neck cancer patients; conditions: 8 head and neck cancer patients, FIG. 17B

Row | Compound | FLT in tumor front (OSCC tumors [1]; FIG. 12A, OSCC specimen, injected 48 hours prior to surgery) | FLT in muscle (OSCC tumors [1]; FIG. 12A, normal tissue) [ns] | FLT in salivary gland (OSCC tumors [1]; FIG. 12A, normal tissue) [ns] | muscle FLT (OSCC tumors [1]; FIG. 12C) [ns] | average FLT of OSCC cell clusters (OSCC tumors [1]; FIG. 12C, three cell clusters) [ns] | average FLT in representative tumor ROI (OSCC tumors [1]; FIG. 13C, high EGFR expressing) [ns] | average FLT in representative muscle ROI (OSCC tumors [1]; FIG. 13C, low EGFR expressing) [ns] | average FLT in representative salivary gland ROI (OSCC tumors [1]; FIG. 13C, moderate EGFR expressing) [ns] | AUC, spectral unmixing classification (OSCC tumors [2]) | AUC, intensity-based classification (OSCC tumors [2]; widefield) | accuracy (AUC), FLT based tumor versus normal classification (sarcoma tumors) | accuracy (AUC), intensity based tumor versus normal classification (sarcoma tumors) | accuracy (AUC), FLT based tumor vs normal classification (head and neck cancers) | accuracy (AUC), intensity based tumor vs normal classification (head and neck cancers)
1 | panitumumab-IRDye800CW: conjugate of the FDA approved therapeutic antibody for the epidermal growth factor receptor (EGFR), panitumumab, with IRdye800CW, an NIR dye | 0.9-1 ns | 0.5 | 0.7 | 0.5 | 0.96 | 0.88 | 0.4 | 0.5 | 0.58 | 0.32 | – | – | – | –
2 | CC1(C)C(/C=C/C=C/C=C/C=C2\N(CCCCS(=O)(=O)O)c3ccc4ccccc4c3C2(C)C)=[N+](CCCCS(=O)(=O)[O-])c2ccc3ccccc3c21 [ICG, indocyanine green] | – | – | – | – | – | – | – | – | – | – | 0.96 | 0.56 | 0.96 | 0.61
